These are yes or no findings as the source states them, for the method shown. Binding seen in cells or lysates may run through a third protein. Binding calls can cover weak binding; strength is not graded here.
Target: T1, APPL1 (endogenous) (human (endogenous in PC-3U)) (UniProt Q9UKG1)
T1 sequence: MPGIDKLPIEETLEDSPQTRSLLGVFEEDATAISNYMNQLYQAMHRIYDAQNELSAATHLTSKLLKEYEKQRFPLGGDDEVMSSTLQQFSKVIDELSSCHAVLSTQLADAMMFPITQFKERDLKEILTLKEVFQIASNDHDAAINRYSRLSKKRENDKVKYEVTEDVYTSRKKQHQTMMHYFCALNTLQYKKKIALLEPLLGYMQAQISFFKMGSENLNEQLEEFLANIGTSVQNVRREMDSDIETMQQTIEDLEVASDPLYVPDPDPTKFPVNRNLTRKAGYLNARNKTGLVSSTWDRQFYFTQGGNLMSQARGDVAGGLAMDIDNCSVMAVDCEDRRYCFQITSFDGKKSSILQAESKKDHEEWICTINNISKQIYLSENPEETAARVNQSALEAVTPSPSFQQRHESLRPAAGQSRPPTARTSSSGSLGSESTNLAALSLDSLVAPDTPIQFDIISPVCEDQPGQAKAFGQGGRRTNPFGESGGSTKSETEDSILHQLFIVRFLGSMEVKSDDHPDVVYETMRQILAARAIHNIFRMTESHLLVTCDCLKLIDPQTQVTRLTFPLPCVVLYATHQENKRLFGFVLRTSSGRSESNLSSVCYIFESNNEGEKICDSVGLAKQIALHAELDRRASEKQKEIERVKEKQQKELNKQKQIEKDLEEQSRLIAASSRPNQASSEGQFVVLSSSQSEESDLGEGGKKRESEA
Assay: co-IP; PC-3U whole-cell lysates, IP with APPL1 antibody, blot for PKCζ or β-tubulin; endogenous proteins; cells with or without TGFβ, control or TRAF6 siRNA

binding: binds
Substance: β-tubulin (endogenous) (human (endogenous in PC-3U))

Reference: article PMC4807998
